Test results reported in patent US20210338658A1, “MACROLIDE COMPOUNDS AND THEIR USE IN LIVER STAGE MALARIA AND RELATED DISEASE” (The Johns Hopkins University, priority 2014, published 2021).
Some entries share one result that the patent states for a list of compounds.

tested on: P. berghei sporozoites; test: In vivo liver stage assay (mouse liver parasite load by real-time PCR); settings: 50 mg/kg, oral gavage, two doses 24 hours apart
Method: Approximately 10,000 sporozoites were inoculated by tail vein injection and mice were sacrificed 40 hours later, livers were harvested, placed in RNAzol and parasite levels determined by realtime PCR from cDNA from reverse transcription. Relative fluorescent units were compared to control to determine percent inhibition. Cethromycin (CET) was administered only once while the other drugs were given twice 24 hours apart from each dose. […] Error is standard error of mean of three mice with real time PCR performed in duplicate for transcript levels in each mouse.
Mice were kept in Johns Hopkins Bloomberg School of Public Health mouse facility according to the ACUC animal protocol number MO09H401. Six week old C57BL/6 mice weighing about 20-22 g were divided into groups of three. 12,000 P. berghei sporozoites in a 200 μL volume were injected into mice through tail veins. Two hours after injection, different dilutions of drugs in 100-200 μL volumes were delivered to mice by oral gavage using a plastic feeding tube. A second dose of drugs was given 24 hours after the first one to the mice that were on a daily dosing regimen. Approximately 40 hours post-infection, mice infected with P. berghei sporozoites were anesthetized by inhaling Metofane® and sacrificed for harvesting whole livers. Each mouse liver was immediately put into 10 mL of Trizol® Reagent and fully homogenized. After RNA isolation, the RNA was diluted to 100 ng/mL for reverse-transcription reactions. For a 30 μL reaction, the components were set up as: 3.5 μL of nuclease-free water, 3 μL of 10× Buffer II and 10 mM dNTPs, 6 μL of MgCl2 solution, 1.5 μL of 50 μM Random Hexamers, RNase Inhibitor and MuLV Reverse Transcriptase, 10 μL of RNA sample. cDNA products were stored at −20° C. For a 10 μL real-time quantitative PCR, the components were set up as: 0.2 μL of 10 μM forward and reverse primer 18s P. berghei, 5 μL of 2×SYBR Green PCR Master Mix, 1.6 μL of nuclease-free water, and 3 μL of cDNA sample. All test subjects were done in duplicates including positive and negative controls. […]

| Compound | reduction of parasite load in mouse liver |
| --- | --- |
| O=C(COC(=O)c1cccnc1SCC(=O)Nc1cc(S(=O)(=O)N2CCOCC2)ccc1Cl)Nc1cc(S(=O)(=O)N2CCOCC2)ccc1Cl [T0507-9950, [2-(2-chloro-5-morpholin-4-ylsulfonylanilino)-2-oxoethyl] 2-[2-(2-chloro-5-morpholin-4-ylsulfonylanilino)-2-oxoethyl]sulfanylpyridine-3-carboxylate] | more than 50% |
| CCN(CC)S(=O)(=O)c1cccc(-c2nnc(SC(C)C(=O)Nc3ccc(C)c(S(=O)(=O)N(CC)CC)c3)n2Cc2ccccc2)c1 (stereo not drawn) [T5531873, 2-[[4-benzyl-5-[3-(diethylsulfamoyl)phenyl]-1,2,4-triazol-3-yl]sulfanyl]-N-[3-(diethylsulfamoyl)-4-methylphenyl]propanamide] | more than 50% |
| O=C(/C=C/c1ccc(Cl)cc1Cl)Nc1cc(S(=O)(=O)N2CCCCC2)ccc1Cl [T0510-7064, (E)-N-(2-chloro-5-piperidin-1-ylsulfonylphenyl)-3-(2,4-dichlorophenyl)prop-2-enamide] | more than 50% |
